Reference: article PMC7819943, “Rice protein-binding microarrays: a tool to detect cis-acting elements near promoter regions in rice”
Some of the results follow.

Protein sequences, listed by entry. Tags and fused reporters are not part of them.
UniProt Q0JBA9, entry or part of it: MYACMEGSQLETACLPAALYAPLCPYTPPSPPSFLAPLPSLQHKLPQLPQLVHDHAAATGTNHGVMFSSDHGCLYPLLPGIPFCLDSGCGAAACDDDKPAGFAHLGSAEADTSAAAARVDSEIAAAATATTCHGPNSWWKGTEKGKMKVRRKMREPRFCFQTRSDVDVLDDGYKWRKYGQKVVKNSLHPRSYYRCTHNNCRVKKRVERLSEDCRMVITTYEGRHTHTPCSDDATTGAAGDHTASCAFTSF

target: OsWRKY34 (Oryza sativa, UniProt Q0JBA9 1-250); experiment: protein-binding microarray (RPBM); PBS, 2% BSA, 51.3 ng/ul salmon testes DNA, 50 uM zinc acetate, 200 nM TF, 25 C, 1 h; high values mean tight binding; conditions: protein: recombinant; tags: N-terminal polyhistidine and DsRed monomer fusion (pET32a); label: CyDye5-dUTP incorporated in the synthesized complementary strand; 3' TTTTT single-stranded linker to array surface; dsDNA, one strand shown
Method in brief: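 An Axon 4000B scanner gave the binding signal as per-feature fluorescence intensity in arbitrary units. This followed washing of a custom Agilent array that had been incubated for 1 h at 25 °C with 200 nM protein in PBS, 2% BSA, salmon testes DNA and 50 µM zinc acetate. The proteins were transcription factors fused at the N-terminus to polyhistidine and DsRed, expressed in E. coli BL21-CodonPlus and purified on Ni–NTA.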

Sequence	binding signal
TGAGTAGGGTTAAGGTGTCTTCGTGTGTATTTTGTTCAATCGGAGTCACCTAGTGCAG	8600 fluorescence intensity (a.u.)
CTACCTGTATAAAAACCCGCTTGCTAGTTCATTTCCCACACGGAGTCACCTAGTGCAG	9250 fluorescence intensity (a.u.)
GATGGGTCAAACTCTCGTCTGACAACGTGATTCGCTCGCTCGGAGTCACCTAGTGCAG	8230 fluorescence intensity (a.u.)
CTAATGTGGTCACTGTTTTTATTACACATTATTATCGGTTCGGAGTCACCTAGTGCAG	10000 fluorescence intensity (a.u.)
TACCGTCGTGCTCCATCAATTCCATCTCCACGTGTTATTGCGGAGTCACCTAGTGCAG	10900 fluorescence intensity (a.u.)
GCCACCATGCACCATCCCTGGCCCTCGTGTCTCCTCAATACGGAGTCACCTAGTGCAG	9180 fluorescence intensity (a.u.)
TTGTCATGATTTTCTCATTTTCCCCTATGAGTTTTTACATCGGAGTCACCTAGTGCAG	8540 fluorescence intensity (a.u.)
ATGTGTCCGTGTCCATCCATATCCACGCCGGGCACAGCAACGGAGTCACCTAGTGCAG	9020 fluorescence intensity (a.u.)
GCAAGCGCATCGCATGTTGTACAGTACAAAATGGCCACCCCGGAGTCACCTAGTGCAG	8230 fluorescence intensity (a.u.)
AGGCTTTAGTGCTGCACACTCCAGTACTCCATCCAGCACCCGGAGTCACCTAGTGCAG	8380 fluorescence intensity (a.u.)
GAGATTGGGGTTTTGATGACGGGGAATTGATCTCGATCGTCGGAGTCACCTAGTGCAG	9400 fluorescence intensity (a.u.)
GAAACGAAACGCGTTTCTTCATTTGGTTAATTTTGCGCGTCGGAGTCACCTAGTGCAG	8480 fluorescence intensity (a.u.)
GTTTGACCGGATATTGGATGGGGTTTTCGGACACGAATGACGGAGTCACCTAGTGCAG	8790 fluorescence intensity (a.u.)
TCACCAGATCTTTTCAATGGTTTGCTTTGCTTGCTTTGCACGGAGTCACCTAGTGCAG	9360 fluorescence intensity (a.u.)
ATGCCTATCATATGCGCATCAAATTTAGACCTAAATTTCCCGGAGTCACCTAGTGCAG	8520 fluorescence intensity (a.u.)
CTATTTCACTTACGACAATTTTTTTGTGGCTCTTATATTTCGGAGTCACCTAGTGCAG	9510 fluorescence intensity (a.u.)
ACTTGCTCTGACCATGACTGCCGTGTCCTACACATTAATCCGGAGTCACCTAGTGCAG	8180 fluorescence intensity (a.u.)
TGTCATGGGACCAGAATTGCACGGTTTTGTATAGTTTAGGCGGAGTCACCTAGTGCAG	8150 fluorescence intensity (a.u.)
GCGACACATGCCGCGCAGGCCCAGCGACCGGCGGCGCCGCCGGAGTCACCTAGTGCAG	8080 fluorescence intensity (a.u.)
TGTTGCATTCTAGTTGAAGTCTTCATAAACACCTTATTTGCGGAGTCACCTAGTGCAG	8250 fluorescence intensity (a.u.)
CTTGTATCTTGAGCATCATTTGTGTTTTCAGGTTTCTCTTCGGAGTCACCTAGTGCAG	8100 fluorescence intensity (a.u.)

Sequence	binding signal
TCGTGTTCGTGTTGGTTCCTACCTCTCCAAGTCTCTACAACGGAGTCACCTAGTGCAG	11000 fluorescence intensity (a.u.)
GAGCACCAACACTCACGCATTCCTTCCTACTCCGCGAGATCGGAGTCACCTAGTGCAG	8720 fluorescence intensity (a.u.)
GGTCTCTTGCTTCTTACAATTTACCACTGGTTTTAGATTTCGGAGTCACCTAGTGCAG	10300 fluorescence intensity (a.u.)
TGCTCCCGTCCCGCGCGCGCGCCCATCTCCCCGCCTATAACGGAGTCACCTAGTGCAG	8250 fluorescence intensity (a.u.)
TCCCTTCCCTGTTCCTGGCGACGTGTCACCTTCTTATTCGCGGAGTCACCTAGTGCAG	8050 fluorescence intensity (a.u.)
TATATAACACAAAATAAGATCAACGTTGACCCGGGTTGACCGGAGTCACCTAGTGCAG	10200 fluorescence intensity (a.u.)
ATTGTTATATTTTGCGACGGAGCGAGTACCTTGTAACTAACGGAGTCACCTAGTGCAG	8050 fluorescence intensity (a.u.)
ATTTTTGTGTGAATGACAGATGGTTCCAGATATATTTTTTCGGAGTCACCTAGTGCAG	8120 fluorescence intensity (a.u.)
CGGATGGTCAAACGTTGGTCAAAAAGTCAACGGCGTCATACGGAGTCACCTAGTGCAG	19600 fluorescence intensity (a.u.)
TCTCCTCTCTCTTCTCTTCTCTCTCTCCGATCCGGATCTTCGGAGTCACCTAGTGCAG	8550 fluorescence intensity (a.u.)
TCCATTATCACGTGATTAATTAAGTATTAGCTATTTTTTTCGGAGTCACCTAGTGCAG	8220 fluorescence intensity (a.u.)
TCCGTGCTCGCGCTGCCTGCGGCTCGCCCTCACACCTACGCGGAGTCACCTAGTGCAG	8310 fluorescence intensity (a.u.)
ATTGCACCTACCTGACAAGTTTTTTTATCGGCAATGCAATCGGAGTCACCTAGTGCAG	8930 fluorescence intensity (a.u.)
GAGGCTGGGCTGGGCGGGCGTATCGTTCCTGCTCCCGGAGCGGAGTCACCTAGTGCAG	25400 fluorescence intensity (a.u.)
CAGAGCGCGTAACCGCCGCCTCGGGCCATTTCTCACACAACGGAGTCACCTAGTGCAG	8540 fluorescence intensity (a.u.)
GATCTCTCCACTGGGCCCACCTCGTCTCTCGTCATTCGCCCGGAGTCACCTAGTGCAG	12100 fluorescence intensity (a.u.)
TTCTGGAATTAACAGCCACACCCTTCGCACATTTCTCTTTCGGAGTCACCTAGTGCAG	10600 fluorescence intensity (a.u.)
CTGTCTCTCTCCGAAATATCATTTCGTTTTTTAATCATCTCGGAGTCACCTAGTGCAG	8700 fluorescence intensity (a.u.)
AACCCTAGCTAAAACCCTACGCTTCCGCCGCCGCGAGCGCCGGAGTCACCTAGTGCAG	8120 fluorescence intensity (a.u.)
GCTATCGCTAGACCGTTATTCCGCTGCTGTTTTCTTTTCTCGGAGTCACCTAGTGCAG	12100 fluorescence intensity (a.u.)
GTTGTCGAGTATTTTCTGCTTATGTACGCCTCAAACCGACCGGAGTCACCTAGTGCAG	12600 fluorescence intensity (a.u.)

A second format for part of the listing above:
Sequence | binding signal
GAGCACCAACACTCACGCATTCCTTCCTACTCCGCGAGATCGGAGTCACCTAGTGCAG | 8720 fluorescence intensity (a.u.)
GAGGCTGGGCTGGGCGGGCGTATCGTTCCTGCTCCCGGAGCGGAGTCACCTAGTGCAG | 25400 fluorescence intensity (a.u.)
AACCCTAGCTAAAACCCTACGCTTCCGCCGCCGCGAGCGCCGGAGTCACCTAGTGCAG | 8120 fluorescence intensity (a.u.)
